Experimental data reported in US10064926B2, “Peptides and combination of peptides for use in immunotherapy against hepatocellular carcinoma (HCC) and other cancers” (Immatics biotechnologies GmbH, priority 2014, dated 2018).

Each substance was assayed on tumor samples of other tumor types (assay: Over-presentation of peptides on additional tumor types versus normal tissues (LC-MS)). Settings: over-presentation on more than 5% of the measured tumor samples, or presentation on more than 5% with ratio of geometric means tumor vs normal tissues larger than 3.
Set-up: species or system human
In the case of “223 (FLFNTENKLLL; listed as Homo sapiens) [compound 223]”, the “Additional Entities (additional tumor types on which the peptide was found over-presented)” value is reported as “Melanoma, Urinary bladder cancer, NHL” and the “Other relevant organs/diseases (additional tumor types on which the peptide was found over-presented)” value is reported as “Colon, Rectum”. With “199 (KFVTVQATF; listed as Homo sapiens) [compound 199]” the “Other relevant organs/diseases (additional tumor types on which the peptide was found over-presented)” value was “Brain”. “136 (ALLNQHYQV; listed as Homo sapiens) [compound 136]” was tested, and the “Additional Entities (additional tumor types on which the peptide was found over-presented)” value was “BRCA, OC”. “331 (SLLAQNTSWLL; listed as Homo sapiens) [compound 331]” was tested, and the “Additional Entities (additional tumor types on which the peptide was found over-presented)” value was “NSCLC, RCC, GC, BRCA, Melanoma, Esophageal Cancer, Urinary bladder cancer” and the “Other relevant organs/diseases (additional tumor types on which the peptide was found over-presented)” value was “Brain, Colon, Rectum, Pancreas”. In the case of “37 (LLLPLLPPLSP; listed as Homo sapiens) [compound 37]”, the “Additional Entities (additional tumor types on which the peptide was found over-presented)” value is reported as “SCLC, PC, MCC, Uterine Cancer, Gallbladder Cancer, Bile Duct Cancer”. With “232 (KLAEIVKQV; listed as Homo sapiens) [compound 232]” the “Additional Entities (additional tumor types on which the peptide was found over-presented)” value was “NSCLC, SCLC, BRCA, Melanoma, OC, Urinary bladder cancer” and the “Other relevant organs/diseases (additional tumor types on which the peptide was found over-presented)” value was “Colon, Rectum”. For “112 (VLGEVKVGV; listed as Homo sapiens) [compound 112]”, the “Other relevant organs/diseases (additional tumor types on which the peptide was found over-presented)” value was “Kidney”. With “95 (SICNGVPMV; listed as Homo sapiens) [compound 95]” the “Additional Entities (additional tumor types on which the peptide was found over-presented)” value was “Urinary bladder cancer”. In the case of “341 (YLAIGIHEL; listed as Homo sapiens) [compound 341]”, the “Additional Entities (additional tumor types on which the peptide was found over-presented)” value is reported as “SCLC”. With “145 (FLIAEYFEHV; listed as Homo sapiens) [compound 145]” the “Additional Entities (additional tumor types on which the peptide was found over-presented)” value was “SCLC”. “152 (KLDNNLDSV; listed as Homo sapiens) [compound 152]” was tested, and the “Additional Entities (additional tumor types on which the peptide was found over-presented)” value was “BRCA, Melanoma”. In the case of “247 (KLLDTMVDTFL; listed as Homo sapiens) [compound 247]”, the “Additional Entities (additional tumor types on which the peptide was found over-presented)” value is reported as “NSCLC, SCLC, RCC, Brain Cancer, CLL, BRCA, OC, Esophageal Cancer, Urinary bladder cancer, Uterine Cancer, AML, NHL” and the “Other relevant organs/diseases (additional tumor types on which the peptide was found over-presented)” value is reported as “Colon, Rectum”. For “65 (KLFSGDELLEV; listed as Homo sapiens) [compound 65]”, the “Other relevant organs/diseases (additional tumor types on which the peptide was found over-presented)” value was “Brain, Colon, Rectum”. With “64 (KILEETLYV; listed as Homo sapiens) [compound 64]” the “Additional Entities (additional tumor types on which the peptide was found over-presented)” value was “Esophageal Cancer, Urinary bladder cancer, Uterine Cancer”. With “216 (IYADVGEEF; listed as Homo sapiens) [compound 216]” the “Additional Entities (additional tumor types on which the peptide was found over-presented)” value was “NSCLC, GC, PrC”. For “333 (GLAEDIDKGEV; listed as Homo sapiens) [compound 333]”, the “Other relevant organs/diseases (additional tumor types on which the peptide was found over-presented)” value was “Kidney, Brain”. In the case of “90 (RLLDVLAPLV; listed as Homo sapiens) [compound 90]”, the “Additional Entities (additional tumor types on which the peptide was found over-presented)” value is reported as “BRCA” and the “Other relevant organs/diseases (additional tumor types on which the peptide was found over-presented)” value is reported as “Kidney”. “69 (KLLDEVTYLEA; listed as Homo sapiens) [compound 69]” was tested, and the “Additional Entities (additional tumor types on which the peptide was found over-presented)” value was “Urinary bladder cancer” and the “Other relevant organs/diseases (additional tumor types on which the peptide was found over-presented)” value was “Colon, Rectum”. For “222 (LTDITKGV; listed as Homo sapiens) [compound 222]”, the “Additional Entities (additional tumor types on which the peptide was found over-presented)” value was “BRCA, NHL”. For “78 (LLIDDEYKV; listed as Homo sapiens) [compound 78]”, the “Additional Entities (additional tumor types on which the peptide was found over-presented)” value was “Esophageal Cancer, Urinary bladder cancer, PC”. In the case of “262 (VLPNFLPYNV; listed as Homo sapiens) [compound 262]”, the “Additional Entities (additional tumor types on which the peptide was found over-presented)” value is reported as “NSCLC, SCLC, Brain Cancer, GC, BRCA, MCC, Melanoma, Esophageal Cancer, Urinary bladder cancer, Uterine Cancer, Gallbladder Cancer, Bile Duct Cancer, NHL, PC”. With “285 (KLLDLSDSTSV; listed as Homo sapiens) [compound 285]” the “Additional Entities (additional tumor types on which the peptide was found over-presented)” value was “SCLC, Uterine Cancer” and the “Other relevant organs/diseases (additional tumor types on which the peptide was found over-presented)” value was “Kidney, Colon, Rectum”. For “125 (ALYGRLEVV; listed as Homo sapiens) [compound 125]”, the “Additional Entities (additional tumor types on which the peptide was found over-presented)” value was “BRCA, MCC, Melanoma, OC, Urinary bladder cancer, Uterine Cancer” and the “Other relevant organs/diseases (additional tumor types on which the peptide was found over-presented)” value was “Brain, Colon, Rectum”. With “287 (LIGEFLEKV; listed as Homo sapiens) [compound 287]” the “Additional Entities (additional tumor types on which the peptide was found over-presented)” value was “SCLC, RCC, Melanoma, OC, Esophageal Cancer, Urinary bladder cancer, NHL” and the “Other relevant organs/diseases (additional tumor types on which the peptide was found over-presented)” value was “CLL”. “325 (RLSEAIVTV; listed as Homo sapiens) [compound 325]” was tested, and the “Other relevant organs/diseases (additional tumor types on which the peptide was found over-presented)” value was “Brain, Pancreas”. In the case of “178 (YIFTTPKSV; listed as Homo sapiens) [compound 178]”, the “Additional Entities (additional tumor types on which the peptide was found over-presented)” value is reported as “AML”. In the case of “306 (KLVEFDFLGA; listed as Homo sapiens) [compound 306]”, the “Other relevant organs/diseases (additional tumor types on which the peptide was found over-presented)” value is reported as “Brain, Colon, Rectum”. In the case of “280 (ATLNIIHSV; listed as Homo sapiens) [compound 280]”, the “Additional Entities (additional tumor types on which the peptide was found over-presented)” value is reported as “Urinary bladder cancer”. “150 (GLSNLGIKSI; listed as Homo sapiens) [compound 150]” was tested, and the “Additional Entities (additional tumor types on which the peptide was found over-presented)” value was “Urinary bladder cancer, NHL”. “35 (SLQESILAQV; listed as Homo sapiens) [compound 35]” was tested, and the “Additional Entities (additional tumor types on which the peptide was found over-presented)” value was “NSCLC, SCLC, PrC, MCC, Melanoma, Urinary bladder cancer, AML”. With “209 (VFHPRQELI; listed as Homo sapiens) [compound 209]” the “Additional Entities (additional tumor types on which the peptide was found over-presented)” value was “NSCLC”. For “207 (IYLERFPIF; listed as Homo sapiens) [compound 207]”, the “Additional Entities (additional tumor types on which the peptide was found over-presented)” value was “NSCLC, GC”. “339 (RLISKFDTV; listed as Homo sapiens) [compound 339]” was tested, and the “Other relevant organs/diseases (additional tumor types on which the peptide was found over-presented)” value was “Brain”. In the case of “294 (RLIDLHTNV; listed as Homo sapiens) [compound 294]”, the “Additional Entities (additional tumor types on which the peptide was found over-presented)” value is reported as “Esophageal Cancer”. In the case of “138 (ALSQVTLLL; listed as Homo sapiens) [compound 138]”, the “Other relevant organs/diseases (additional tumor types on which the peptide was found over-presented)” value is reported as “Kidney”. In the case of “115 (VVLDDKDYFL; listed as Homo sapiens) [compound 115]”, the “Additional Entities (additional tumor types on which the peptide was found over-presented)” value is reported as “CLL”.
